Data reported in PubChem BioAssay AID212 (DTP/NCI, 2004).
The list does not hold the whole screen: it gathers tests that were run many times, whatever their T/C, doses with no T/C, and many T/C values between a quarter and a half above the control. Other doses and runs of a compound stand elsewhere. T/C is the treated group as % of the vehicle group. Schedule codes are those of the source, taken here to give the interval after Q, in days (D) or hours (H), and the number of doses after X. Some T/C values carry the count of animals alive at the toxicity check (mostly the fifth day); where none is given, no animal had died by that day. Some entries were tested several times; their values stand side by side, smallest first. Signs of the kind (2×) stand for listed records that agree. Some entries give survivors of the animals treated and no T/C: the source files T/C as zero there, which appears to mark a toxic dose or a test without result, not a measured value. Counts of survivors are from the toxicity check (mostly the fifth day) where no day follows; animals may have died later.

System: BDF1 mice, colon carcinoma 38 sc, T/C %
Assay: NCI In Vivo Anticancer Drug Screen. Data for tumor model Colon Carcinoma 38 (subcutaneous) in B6D2F1 (BDF1) mice
Conditions: T/C endpoint: median tumor weight (est.), higher T/C = larger tumour; for T/C: evaluated on day 20
Procedure: The antitumor activity of compounds was measured in mice bearing transplantable tumors. Survival or tumor size were measured and the results are expressed as the measurement made in the treated group (T) divided by the measurement made in the vehicle treated control group (C). The tumor model used in this assay is Colon Carcinoma 38 (subcutaneous) in B6D2F1 (BDF1) mice

[1] = dose: 40.0 mg/kg/injection, schedule: Q07DX002 (ip), vehicle: saline
[2] = dose: 50.0 mg/kg/injection, schedule: Q07DX002 (ip), vehicle: saline
[3] = dose: 400.0 mg/kg/injection, schedule: Q07DX002 (ip), vehicle: saline
[4] = dose: 400.0 mg/kg/injection, schedule: Q07DX002 (ip), vehicle: saline with Tween-80
[5] = dose: 400.0 mg/kg/injection, schedule: Q07DX002 (ip), vehicle: Klucel (hydroxypropylcellulose) (HPC)
[6] = dose: 200.0 mg/kg/injection, schedule: Q07DX002 (ip), vehicle: saline with Tween-80
[7] = dose: 25.0 mg/kg/injection, schedule: Q07DX002 (ip), vehicle: saline
[8] = dose: 12.5 mg/kg/injection, schedule: Q07DX003 (ip), vehicle: Klucel (hydroxypropylcellulose) (HPC)

Compound: N=C(N)Sc1ccccn1
- T/C (dose: 50.0 mg/kg/injection, schedule: Q07DX003 (ip), vehicle: saline): 129 and 138 % of control
- T/C (dose: 100.0 mg/kg/injection, schedule: Q07DX003 (ip), vehicle: saline): 125 % of control

Compound: [Cl][Mn][Cl]
- T/C (dose: 2.0 mg/kg/injection, schedule: Q07DX002 (ip), vehicle: saline): 143 % of control
- T/C (dose: 4.0 mg/kg/injection, schedule: Q07DX002 (ip), vehicle: saline): 139 % of control
- T/C (dose: 8.0 mg/kg/injection, schedule: Q07DX002 (ip), vehicle: saline): 146 % of control
- T/C (dose: 16.0 mg/kg/injection, schedule: Q07DX002 (ip), vehicle: saline): 130 and 133 % of control [9 of 10 alive on day 20]
- T/C (dose: 24.0 mg/kg/injection, schedule: Q07DX002 (ip), vehicle: saline): 137 % of control
- T/C (dose: 64.0 mg/kg/injection, schedule: Q07DX002 (ip), vehicle: saline): 135 % of control [9 of 10 alive on day 20]
- survivor count (dose: 128.0 mg/kg/injection, schedule: Q07DX002 (ip), vehicle: saline): 6 of 10 on day 20
- survivor count (dose: 192.0 mg/kg/injection, schedule: Q07DX002 (ip), vehicle: saline): 0 of 10 on day 20

Compound: c1ccc([C@H]2CN3CCSC3=N2)cc1
- T/C (dose: 5.0 mg/kg/injection, schedule: Q07DX002 (ip), vehicle: saline): 58, 80, 81 (2×), 94 [9 of 10 alive on day 20] (2×), 100, 102, 120, 132 [9 of 10 alive on day 20], 133 % of control [7 of 9 alive on day 20]
- T/C (dose: 10.0 mg/kg/injection, schedule: Q07DX002 (ip), vehicle: saline): 87 [9 of 10 alive on day 20], 89, 96 [9 of 10 alive on day 20], 98, 101, 106 [9 of 10 alive on day 20], 109, 123, 125, 132, 147 % of control
- T/C (dose: 10.0 mg/kg/injection, schedule: Q07DX003 (ip), vehicle: saline): 130 % of control
- T/C (dose: 20.0 mg/kg/injection, schedule: Q07DX002 (ip), vehicle: saline): 71, 81 [9 of 10 alive on day 20], 89 [8 of 10 alive on day 20], 93 [9 of 10 alive on day 20], 97, 98, 103 [9 of 10 alive on day 20], 114, 114 [9 of 10 alive on day 20], 123, 124 % of control
- T/C [1]: 68 [7 of 10 alive on day 20], 77 [7 of 10 alive on day 20], 83 [9 of 10 alive on day 20], 93, 99, 102 [8 of 10 alive on day 20], 104 [8 of 10 alive on day 20], 123 [9 of 10 alive on day 20], 151 % of control [9 of 10 alive on day 20]
- survivor count [1]: 5 of 10 on day 20 and 6 of 10 on day 20
- T/C (dose: 40.0 mg/kg/injection, schedule: Q07DX003 (ip), vehicle: saline): 142 % of control
- survivor count (dose: 80.0 mg/kg/injection, schedule: Q07DX002 (ip), vehicle: saline): 0 of 10 on day 20, 1 of 10 on day 20, 2 of 10 on day 20

Compound: CC(=O)OC(C)C1C2=C(C(=O)CC1(C)O)C(=O)c1c(ccc(-c3ccc4c(c3O)C(=O)C3=C(C4=O)C(C(C)OC(C)=O)C(C)(O)CC3=O)c1O)C2=O (centres undefined)
- survivor count (dose: 15.0 mg/kg/injection, schedule: Q07DX002 (ip), vehicle: saline with Tween-80): 5 of 10 on day 20

Compound: CC1=C(C)C(=O)O[C@@H]([C@](C)(O)[C@]2(O)CC[C@@]3(O)[C@@H]4C[C@H]5O[C@]56CC=CC(=O)[C@]6(C)[C@H]4CC[C@]23C)C1
- T/C [2]: 126 % of control
- survivor count [3]: 4 of 10 on day 20
- survivor count (dose: 450.0 mg/kg/injection, schedule: Q07DX002 (ip), vehicle: saline): 1 of 10 on day 20
- survivor count (dose: 900.0 mg/kg/injection, schedule: Q07DX002 (ip), vehicle: saline): 0 of 10 on day 20

Compound: CCOC(=O)c1[nH]c2cccc3c2c1CC(Br)C3=O (centres undefined)
- survivor count [4]: 6 of 10 on day 20
- survivor count (dose: 800.0 mg/kg/injection, schedule: Q07DX002 (ip), vehicle: saline with Tween-80): 0 of 10 on day 20

Compound: Cc1cc(N2C(=O)CCSC2=S)ccc1Cl
- T/C (dose: 12.5 mg/kg/injection, schedule: Q07DX002 (ip), vehicle: Klucel (hydroxypropylcellulose) (HPC)): 125 % of control
- T/C (dose: 25.0 mg/kg/injection, schedule: Q07DX002 (ip), vehicle: Klucel (hydroxypropylcellulose) (HPC)): 135 % of control
- T/C (dose: 100.0 mg/kg/injection, schedule: Q07DX002 (ip), vehicle: Klucel (hydroxypropylcellulose) (HPC)): 149 % of control
- T/C [5]: 125 % of control
- survivor count [5]: 5 of 10 on day 20 and 6 of 10 on day 20

Compound: Nc1nccc2c1ncn2C1OC(CO)C(O)C1O (centres undefined)
- T/C (dose: 4.6 mg/kg/injection, schedule: Q03HX024 (ip), vehicle: saline with Tween-80): 129 % of control
- T/C (dose: 9.3 mg/kg/injection, schedule: Q03HX024 (ip), vehicle: saline with Tween-80): 133 % of control
- T/C (dose: 37.5 mg/kg/injection, schedule: Q03HX024 (ip), vehicle: saline with Tween-80): 126 and 137 % of control [8 of 10 alive]
- T/C (dose: 75.0 mg/kg/injection, schedule: Q03HX024 (ip), vehicle: saline with Tween-80): 128 % of control [7 of 10 alive]

Compound: CC[C@H](CC[C@@H](C)C1CC[C@H]2[C@@H]3CC=C4C[C@@H](OP(=O)(N5CC5)N5CC5)CC[C@]4(C)[C@H]3CC[C@]12C)C(C)C (some centres undefined)
- T/C (dose: 50.0 mg/kg/injection, schedule: Q07DX002 (ip), vehicle: saline with Tween-80): 125 % of control
- T/C [6]: 144 % of control
- T/C [4]: 147 % of control

Compound: COC1C(/C=C/C(C)=O)OC2OC(C)(C)OC21 (centres undefined)
- T/C [7]: 143 and 149 % of control
- survivor count [3]: 0 of 10 on day 20

Compound: C1CN2CN3CCN(CN1C3)C2
- T/C (dose: 12.5 mg/kg/injection, schedule: Q07DX002 (ip), vehicle: saline): 131 % of control
- T/C [2]: 149 % of control [9 of 10 alive]

Compound: CN(Cc1cnc2nc(N)nc(N)c2n1)c1c(Cl)cc(C(=O)NC(CCC(=O)O)C(=O)O)cc1Cl (centres undefined)
- T/C [8]: 135 % of control
- survivor count [8]: 2 of 10

Compound: CCCC(=O)OC1C=C2N3C(=O)C4CC56C(=CC(OC(C)=O)C7OC75)N4C(=O)C3CC26C2OC12 (centres undefined)
- T/C (dose: 0.63 mg/kg/injection, schedule: Q07DX002 (ip), vehicle: Klucel (hydroxypropylcellulose) (HPC)): 140 % of control

Compound: CNc1nc2c(N)ncnc2n1C1OC(CO)C(O)C1O (centres undefined)
- T/C (dose: 6.25 mg/kg/injection, schedule: Q07DX002 (ip), vehicle: saline): 128 % of control [9 of 10 alive on day 20]
- survivor count [7]: 4 of 10 on day 20
- survivor count [2]: 5 of 10 on day 20
- survivor count (dose: 100.0 mg/kg/injection, schedule: Q07DX002 (ip), vehicle: saline): 1 of 10 on day 20
- survivor count (dose: 200.0 mg/kg/injection, schedule: Q07DX002 (ip), vehicle: saline): 0 of 10 on day 20

Compound: COC(=O)Nc1cccc(-c2nc3ccc(NC(=O)OC)cc3c(=O)n2-c2ccccc2)c1
- T/C (dose: 16.0 mg/kg/injection, schedule: Q07DX003 (ip), vehicle: Klucel (hydroxypropylcellulose) (HPC)): 140 % of control

Compound: O=C1C(O)=C(c2ccccc2)C(=O)C(O)=C1c1ccccc1
- survivor count (dose: 100.0 mg/kg/injection, schedule: Q07DX002 (ip), vehicle: saline with Tween-80): 6 of 10 on day 20
- survivor count [6]: 5 of 10 on day 20
- survivor count [4]: 0 of 10 on day 20
- survivor count [3]: 6 of 10 on day 20
